# According to the supplement of paper PMC6411743:
# ± gives the standard deviation of the averaged measurements. The entries are a selection whose mix differs from that of the whole data set.
# Legend:
# Assay in all cases: NP40-soluble protein abundance relative to vehicle (solubility fold change) (ratio); higher = more soluble protein in presence of ATP
# UniProt Q9H0G5 = biological target: T1, UniProt Q9H0G5
# T1 sequence (whole entry): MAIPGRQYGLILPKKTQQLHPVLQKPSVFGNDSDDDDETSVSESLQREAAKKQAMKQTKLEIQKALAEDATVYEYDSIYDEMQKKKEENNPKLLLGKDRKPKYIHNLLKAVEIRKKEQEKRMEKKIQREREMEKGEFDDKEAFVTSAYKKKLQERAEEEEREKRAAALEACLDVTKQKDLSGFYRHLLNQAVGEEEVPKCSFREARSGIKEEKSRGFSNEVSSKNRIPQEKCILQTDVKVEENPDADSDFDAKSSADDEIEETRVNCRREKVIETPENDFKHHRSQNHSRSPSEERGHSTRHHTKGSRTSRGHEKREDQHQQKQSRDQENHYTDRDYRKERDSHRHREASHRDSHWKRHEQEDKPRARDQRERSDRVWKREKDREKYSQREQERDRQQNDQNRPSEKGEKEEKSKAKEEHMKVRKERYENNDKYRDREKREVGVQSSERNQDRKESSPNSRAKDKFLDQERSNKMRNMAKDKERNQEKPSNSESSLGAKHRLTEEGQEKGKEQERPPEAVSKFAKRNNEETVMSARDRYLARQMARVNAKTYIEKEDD
# Summary of the method: (§1)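 In three independent experiments, Jurkat crude lysate made by Dounce homogenisation was treated for 10 min at room temperature and then 3 min at 37 °C with eight concentrations ranging from 0.1 to 10 mM. It was then solubilised with 0.8% NP40 plus benzonase for 60 min at 4 °C and ultracentrifuged. The supernatant was TMT-labelled for LC-MS/MS, and each value is the fold change against the detergent-processed vehicle for the same replicate, using vsn-normalised intensities.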
# [1] = biological target: T2, UniProt Q9H0R5 and related entries
# T2 sequence (whole entry): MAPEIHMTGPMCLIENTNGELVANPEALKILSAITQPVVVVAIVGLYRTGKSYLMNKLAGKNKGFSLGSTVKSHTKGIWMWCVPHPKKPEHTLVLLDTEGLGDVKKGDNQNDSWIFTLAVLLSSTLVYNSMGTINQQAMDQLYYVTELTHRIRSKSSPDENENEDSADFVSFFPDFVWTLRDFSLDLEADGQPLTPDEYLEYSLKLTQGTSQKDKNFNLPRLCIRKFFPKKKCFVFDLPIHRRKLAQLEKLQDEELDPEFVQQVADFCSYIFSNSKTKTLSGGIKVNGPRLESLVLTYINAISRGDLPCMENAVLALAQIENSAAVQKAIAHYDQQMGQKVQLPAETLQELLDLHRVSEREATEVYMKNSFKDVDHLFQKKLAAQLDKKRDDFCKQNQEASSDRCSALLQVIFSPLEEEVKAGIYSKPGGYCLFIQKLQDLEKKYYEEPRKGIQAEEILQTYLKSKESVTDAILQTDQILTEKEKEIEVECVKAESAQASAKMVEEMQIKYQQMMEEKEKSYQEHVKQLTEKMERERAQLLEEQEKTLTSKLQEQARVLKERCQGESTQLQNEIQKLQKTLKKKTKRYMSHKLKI
# Summary of the method: as §1
# UniProt Q9H0X4 = biological target: T3, UniProt Q9H0X4
# T3 sequence (whole entry): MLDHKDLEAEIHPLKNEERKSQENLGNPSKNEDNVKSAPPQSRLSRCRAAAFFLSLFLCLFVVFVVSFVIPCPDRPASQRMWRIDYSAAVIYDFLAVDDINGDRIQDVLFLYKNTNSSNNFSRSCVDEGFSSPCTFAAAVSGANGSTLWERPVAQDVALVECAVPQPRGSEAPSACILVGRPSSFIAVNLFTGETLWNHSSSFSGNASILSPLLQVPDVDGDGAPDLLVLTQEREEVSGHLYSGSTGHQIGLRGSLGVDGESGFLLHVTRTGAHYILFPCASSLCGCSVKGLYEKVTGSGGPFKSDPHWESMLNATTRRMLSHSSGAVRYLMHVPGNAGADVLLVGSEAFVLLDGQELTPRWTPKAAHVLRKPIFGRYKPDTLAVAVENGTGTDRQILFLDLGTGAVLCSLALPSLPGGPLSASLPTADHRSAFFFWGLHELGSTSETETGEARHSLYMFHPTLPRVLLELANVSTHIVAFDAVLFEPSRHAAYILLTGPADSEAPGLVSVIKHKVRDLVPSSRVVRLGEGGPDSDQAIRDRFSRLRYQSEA
# Summary of the method: as §1
# [2] = biological target: T4, UniProt Q9H270 and related entries
# T4 sequence (whole entry): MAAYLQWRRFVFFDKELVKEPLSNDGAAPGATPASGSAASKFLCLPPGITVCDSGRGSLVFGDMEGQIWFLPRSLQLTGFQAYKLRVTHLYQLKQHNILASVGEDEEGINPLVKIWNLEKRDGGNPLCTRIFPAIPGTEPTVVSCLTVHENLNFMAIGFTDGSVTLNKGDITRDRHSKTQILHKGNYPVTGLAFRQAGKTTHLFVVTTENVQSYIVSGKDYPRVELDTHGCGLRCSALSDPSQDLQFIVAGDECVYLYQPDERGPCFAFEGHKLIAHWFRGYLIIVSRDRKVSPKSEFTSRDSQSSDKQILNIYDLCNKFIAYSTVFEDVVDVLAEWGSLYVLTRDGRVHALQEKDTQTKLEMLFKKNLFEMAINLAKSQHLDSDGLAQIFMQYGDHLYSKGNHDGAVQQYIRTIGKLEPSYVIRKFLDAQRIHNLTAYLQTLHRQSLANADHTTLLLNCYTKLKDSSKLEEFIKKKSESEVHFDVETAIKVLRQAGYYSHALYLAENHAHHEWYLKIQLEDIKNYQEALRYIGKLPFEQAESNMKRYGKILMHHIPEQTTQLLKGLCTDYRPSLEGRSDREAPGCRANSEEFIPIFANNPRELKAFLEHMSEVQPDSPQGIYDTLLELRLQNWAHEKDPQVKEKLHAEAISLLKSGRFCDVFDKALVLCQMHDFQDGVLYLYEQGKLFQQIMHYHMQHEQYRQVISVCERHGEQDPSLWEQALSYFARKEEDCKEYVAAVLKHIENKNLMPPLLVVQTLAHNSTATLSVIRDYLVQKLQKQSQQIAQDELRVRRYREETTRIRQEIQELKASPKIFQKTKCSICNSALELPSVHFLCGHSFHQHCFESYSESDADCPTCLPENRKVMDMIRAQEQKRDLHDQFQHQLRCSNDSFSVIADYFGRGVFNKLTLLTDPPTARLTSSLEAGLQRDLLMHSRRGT
# Summary of the method: as §1
# [3] = biological target: T5, UniProt Q9H4L7 and related entries
# T5 sequence (whole entry): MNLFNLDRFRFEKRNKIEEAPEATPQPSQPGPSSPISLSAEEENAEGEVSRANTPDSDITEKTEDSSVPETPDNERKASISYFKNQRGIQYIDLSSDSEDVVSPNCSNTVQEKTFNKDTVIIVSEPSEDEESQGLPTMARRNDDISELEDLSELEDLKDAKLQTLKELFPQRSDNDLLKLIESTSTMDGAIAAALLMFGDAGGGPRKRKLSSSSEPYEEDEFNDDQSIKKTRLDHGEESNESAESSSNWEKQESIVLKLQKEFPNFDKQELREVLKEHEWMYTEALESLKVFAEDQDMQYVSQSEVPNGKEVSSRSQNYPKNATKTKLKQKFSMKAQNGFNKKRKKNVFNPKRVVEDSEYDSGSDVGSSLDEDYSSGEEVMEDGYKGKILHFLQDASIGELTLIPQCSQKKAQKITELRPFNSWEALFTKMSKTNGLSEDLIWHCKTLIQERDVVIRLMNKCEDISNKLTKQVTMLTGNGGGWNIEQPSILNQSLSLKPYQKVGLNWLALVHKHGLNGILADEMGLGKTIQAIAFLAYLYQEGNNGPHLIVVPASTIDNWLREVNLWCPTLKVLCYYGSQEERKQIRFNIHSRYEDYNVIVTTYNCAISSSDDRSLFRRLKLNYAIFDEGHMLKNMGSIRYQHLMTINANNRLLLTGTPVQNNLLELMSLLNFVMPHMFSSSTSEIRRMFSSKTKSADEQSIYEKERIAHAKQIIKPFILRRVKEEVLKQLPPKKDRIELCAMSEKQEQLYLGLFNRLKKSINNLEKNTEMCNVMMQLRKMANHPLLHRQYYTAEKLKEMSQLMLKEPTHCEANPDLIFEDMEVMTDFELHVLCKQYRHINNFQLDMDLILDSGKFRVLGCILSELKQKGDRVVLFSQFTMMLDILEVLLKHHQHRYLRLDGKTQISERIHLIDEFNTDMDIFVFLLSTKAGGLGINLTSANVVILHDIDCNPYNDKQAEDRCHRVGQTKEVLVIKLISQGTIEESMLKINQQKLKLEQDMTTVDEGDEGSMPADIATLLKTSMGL
# Summary of the method: as §1
structure (smiles),measurement,setting,value
Nc1ncnc2c1ncn2[C@@H]1O[C@H](COP(=O)(O)OP(=O)(O)OP(=O)(O)O)[C@@H](O)[C@H]1O [adenosine triphosphate],NP40-soluble protein abundance,UniProt Q9H0G5; concentration: 1mM,1.09 ± 0.041
same,NP40-soluble protein abundance,UniProt Q9H0G5; concentration: 2mM,1.12 ± 0.034
same,NP40-soluble protein abundance,UniProt Q9H0G5; concentration: 4mM,1.17 ± 0.019
same,NP40-soluble protein abundance,UniProt Q9H0G5; concentration: 6mM,1.24 ± 0.054
same,NP40-soluble protein abundance,UniProt Q9H0G5; concentration: 8mM,1.19 ± 0.027
same,NP40-soluble protein abundance,UniProt Q9H0G5; concentration: 10mM,1.26 ± 0.037
same,NP40-soluble protein abundance,[1]; concentration: 1mM,0.972 ± 0.073
same,NP40-soluble protein abundance,[1]; concentration: 2mM,0.943 ± 0.021
same,NP40-soluble protein abundance,[1]; concentration: 4mM,0.945 ± 0.092
same,NP40-soluble protein abundance,[1]; concentration: 6mM,0.979 ± 0.057
same,NP40-soluble protein abundance,[1]; concentration: 8mM,0.9563 ± 0.0062
same,NP40-soluble protein abundance,[1]; concentration: 10mM,0.978 ± 0.094
same,NP40-soluble protein abundance,UniProt Q9H0X4; concentration: 1mM,0.933 ± 0.047
same,NP40-soluble protein abundance,UniProt Q9H0X4; concentration: 2mM,0.904 ± 0.057
same,NP40-soluble protein abundance,UniProt Q9H0X4; concentration: 4mM,0.937 ± 0.019
same,NP40-soluble protein abundance,UniProt Q9H0X4; concentration: 6mM,0.967 ± 0.046
same,NP40-soluble protein abundance,UniProt Q9H0X4; concentration: 8mM,0.902 ± 0.014
same,NP40-soluble protein abundance,UniProt Q9H0X4; concentration: 10mM,0.872 ± 0.089
same,NP40-soluble protein abundance,[2]; concentration: 1mM,1.04 ± 0.1
same,NP40-soluble protein abundance,[2]; concentration: 2mM,1.02 ± 0.067
same,NP40-soluble protein abundance,[2]; concentration: 4mM,1.03 ± 0.079
same,NP40-soluble protein abundance,[2]; concentration: 6mM,0.944 ± 0.095
same,NP40-soluble protein abundance,[2]; concentration: 8mM,1.03 ± 0.033
same,NP40-soluble protein abundance,[2]; concentration: 10mM,1.02 ± 0.044
same,NP40-soluble protein abundance,[3]; concentration: 1mM,1 ± 0.032
same,NP40-soluble protein abundance,[3]; concentration: 2mM,0.977 ± 0.031
same,NP40-soluble protein abundance,[3]; concentration: 4mM,0.971 ± 0.047

# Two entries from above, reformatted.
structure (smiles) | measurement | setting | value
Nc1ncnc2c1ncn2[C@@H]1O[C@H](COP(=O)(O)OP(=O)(O)OP(=O)(O)O)[C@@H](O)[C@H]1O [adenosine triphosphate] | NP40-soluble protein abundance | UniProt Q9H0G5; concentration: 6mM | 1.24 ± 0.054
same | NP40-soluble protein abundance | [3]; concentration: 4mM | 0.971 ± 0.047
